# Reference: publication PMC4658663
# Chains of the proteins cited; added tags and fusions are not shown. Residues count along the entry.
# UniProt P49682: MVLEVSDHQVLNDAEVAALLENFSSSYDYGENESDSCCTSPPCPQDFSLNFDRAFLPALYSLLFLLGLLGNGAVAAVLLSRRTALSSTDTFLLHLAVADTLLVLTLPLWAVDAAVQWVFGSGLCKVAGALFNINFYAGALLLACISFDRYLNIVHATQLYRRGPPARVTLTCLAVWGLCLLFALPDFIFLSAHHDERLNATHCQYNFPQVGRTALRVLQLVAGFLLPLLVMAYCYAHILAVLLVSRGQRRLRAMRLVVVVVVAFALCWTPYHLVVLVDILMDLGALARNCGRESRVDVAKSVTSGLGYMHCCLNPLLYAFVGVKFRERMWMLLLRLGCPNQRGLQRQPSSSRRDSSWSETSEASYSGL
# UniProt P30874: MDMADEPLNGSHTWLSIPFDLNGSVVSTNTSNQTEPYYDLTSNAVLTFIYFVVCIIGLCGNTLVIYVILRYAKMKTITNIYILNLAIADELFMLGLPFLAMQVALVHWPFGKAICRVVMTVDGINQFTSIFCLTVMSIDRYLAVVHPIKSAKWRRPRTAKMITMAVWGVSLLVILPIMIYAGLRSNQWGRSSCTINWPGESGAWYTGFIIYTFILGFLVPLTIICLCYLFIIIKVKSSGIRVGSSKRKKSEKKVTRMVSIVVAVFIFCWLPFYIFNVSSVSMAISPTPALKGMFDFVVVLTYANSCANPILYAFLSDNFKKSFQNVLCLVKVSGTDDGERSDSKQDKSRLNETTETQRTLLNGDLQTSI
# UniProt P31391: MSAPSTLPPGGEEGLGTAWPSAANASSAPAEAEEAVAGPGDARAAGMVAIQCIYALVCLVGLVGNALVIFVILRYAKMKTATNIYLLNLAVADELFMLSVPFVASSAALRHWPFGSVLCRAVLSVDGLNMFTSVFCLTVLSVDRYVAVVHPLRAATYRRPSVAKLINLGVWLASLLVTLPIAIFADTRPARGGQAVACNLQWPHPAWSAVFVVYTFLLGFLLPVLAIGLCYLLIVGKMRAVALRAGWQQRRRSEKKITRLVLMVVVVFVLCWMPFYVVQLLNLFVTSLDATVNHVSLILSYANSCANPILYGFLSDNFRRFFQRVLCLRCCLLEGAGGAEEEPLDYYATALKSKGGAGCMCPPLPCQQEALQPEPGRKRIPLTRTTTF
# UniProt Q9Y5N1: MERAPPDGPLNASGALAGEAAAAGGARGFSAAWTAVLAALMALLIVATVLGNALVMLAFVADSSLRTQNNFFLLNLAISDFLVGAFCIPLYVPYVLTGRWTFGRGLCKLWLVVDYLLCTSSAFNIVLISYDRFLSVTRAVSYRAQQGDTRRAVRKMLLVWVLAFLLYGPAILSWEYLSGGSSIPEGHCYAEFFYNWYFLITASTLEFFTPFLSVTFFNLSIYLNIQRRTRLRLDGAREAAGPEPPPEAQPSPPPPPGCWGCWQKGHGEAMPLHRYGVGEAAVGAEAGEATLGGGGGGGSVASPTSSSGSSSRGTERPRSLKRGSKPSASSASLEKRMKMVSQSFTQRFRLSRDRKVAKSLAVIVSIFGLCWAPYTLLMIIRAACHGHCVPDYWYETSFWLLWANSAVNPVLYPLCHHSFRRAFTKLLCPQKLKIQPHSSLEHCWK
# UniProt P41595: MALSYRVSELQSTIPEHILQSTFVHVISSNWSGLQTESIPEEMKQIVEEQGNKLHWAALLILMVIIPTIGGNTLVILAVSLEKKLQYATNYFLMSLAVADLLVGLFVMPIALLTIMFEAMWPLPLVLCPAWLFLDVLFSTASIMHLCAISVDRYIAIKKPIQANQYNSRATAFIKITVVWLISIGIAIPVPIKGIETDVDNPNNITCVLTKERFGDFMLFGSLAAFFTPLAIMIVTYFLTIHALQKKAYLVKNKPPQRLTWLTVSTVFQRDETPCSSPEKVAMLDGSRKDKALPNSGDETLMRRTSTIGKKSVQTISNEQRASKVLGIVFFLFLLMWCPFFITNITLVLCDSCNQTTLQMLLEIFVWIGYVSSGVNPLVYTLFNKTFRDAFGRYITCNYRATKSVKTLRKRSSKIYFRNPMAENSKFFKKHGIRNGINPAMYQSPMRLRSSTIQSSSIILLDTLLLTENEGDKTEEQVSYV
# UniProt O95136: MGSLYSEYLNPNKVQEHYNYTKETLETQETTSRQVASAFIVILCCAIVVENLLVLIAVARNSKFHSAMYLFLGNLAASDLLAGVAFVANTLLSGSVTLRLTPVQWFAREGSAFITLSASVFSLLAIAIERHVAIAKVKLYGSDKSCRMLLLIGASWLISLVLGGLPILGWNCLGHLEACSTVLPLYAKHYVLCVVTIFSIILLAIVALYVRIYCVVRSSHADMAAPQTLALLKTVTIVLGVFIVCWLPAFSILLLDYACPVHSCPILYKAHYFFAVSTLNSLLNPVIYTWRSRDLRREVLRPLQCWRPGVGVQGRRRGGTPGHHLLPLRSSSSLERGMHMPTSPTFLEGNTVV
# UniProt P28335, residues 33-458: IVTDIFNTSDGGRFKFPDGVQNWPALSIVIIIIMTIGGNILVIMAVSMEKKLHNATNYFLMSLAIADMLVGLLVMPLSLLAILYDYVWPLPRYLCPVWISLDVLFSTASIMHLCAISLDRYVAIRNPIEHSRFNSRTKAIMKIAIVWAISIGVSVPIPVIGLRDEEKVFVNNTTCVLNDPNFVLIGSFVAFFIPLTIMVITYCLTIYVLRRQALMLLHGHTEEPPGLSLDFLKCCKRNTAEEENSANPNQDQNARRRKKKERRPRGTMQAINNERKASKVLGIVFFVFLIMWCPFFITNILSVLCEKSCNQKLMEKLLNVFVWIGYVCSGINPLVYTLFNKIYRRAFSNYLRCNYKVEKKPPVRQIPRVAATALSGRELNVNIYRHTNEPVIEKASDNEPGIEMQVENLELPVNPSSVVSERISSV
# UniProt P25024: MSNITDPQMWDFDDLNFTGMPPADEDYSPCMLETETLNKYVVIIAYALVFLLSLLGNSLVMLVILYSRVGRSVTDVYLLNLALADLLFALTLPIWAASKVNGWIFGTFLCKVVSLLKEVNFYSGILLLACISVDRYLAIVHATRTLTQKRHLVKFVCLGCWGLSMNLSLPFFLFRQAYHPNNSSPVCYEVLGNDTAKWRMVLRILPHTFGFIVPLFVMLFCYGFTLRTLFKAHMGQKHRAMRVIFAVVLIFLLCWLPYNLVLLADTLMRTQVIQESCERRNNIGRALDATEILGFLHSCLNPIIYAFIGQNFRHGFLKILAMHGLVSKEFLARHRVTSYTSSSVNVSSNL
# UniProt Q969V1: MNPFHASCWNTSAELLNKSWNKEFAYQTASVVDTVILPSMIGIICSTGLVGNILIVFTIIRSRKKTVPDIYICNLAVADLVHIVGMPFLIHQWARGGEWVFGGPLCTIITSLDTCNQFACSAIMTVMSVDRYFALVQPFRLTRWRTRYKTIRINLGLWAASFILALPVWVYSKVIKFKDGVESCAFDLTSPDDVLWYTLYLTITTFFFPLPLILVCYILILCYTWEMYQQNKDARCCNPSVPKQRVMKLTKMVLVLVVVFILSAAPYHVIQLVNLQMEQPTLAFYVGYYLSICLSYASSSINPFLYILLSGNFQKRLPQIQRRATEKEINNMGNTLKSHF
# UniProt P32302: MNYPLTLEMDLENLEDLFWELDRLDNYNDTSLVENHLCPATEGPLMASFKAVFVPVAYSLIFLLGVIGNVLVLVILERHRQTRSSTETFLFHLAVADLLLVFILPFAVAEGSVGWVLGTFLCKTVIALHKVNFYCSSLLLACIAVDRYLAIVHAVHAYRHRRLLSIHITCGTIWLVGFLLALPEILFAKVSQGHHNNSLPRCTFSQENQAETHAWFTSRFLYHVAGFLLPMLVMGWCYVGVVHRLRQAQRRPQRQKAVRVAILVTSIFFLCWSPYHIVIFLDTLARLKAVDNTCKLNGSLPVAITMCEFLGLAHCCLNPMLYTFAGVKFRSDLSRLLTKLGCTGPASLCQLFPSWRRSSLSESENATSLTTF
# UniProt Q9HBW0: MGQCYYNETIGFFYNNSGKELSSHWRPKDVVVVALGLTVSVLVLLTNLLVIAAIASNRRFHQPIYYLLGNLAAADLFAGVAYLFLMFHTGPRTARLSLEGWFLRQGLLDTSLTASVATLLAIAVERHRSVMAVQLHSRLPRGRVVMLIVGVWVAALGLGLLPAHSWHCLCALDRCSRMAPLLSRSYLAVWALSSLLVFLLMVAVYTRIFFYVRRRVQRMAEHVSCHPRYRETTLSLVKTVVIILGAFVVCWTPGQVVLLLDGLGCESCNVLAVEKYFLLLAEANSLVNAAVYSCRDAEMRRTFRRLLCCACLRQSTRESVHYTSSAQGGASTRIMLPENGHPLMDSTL
# UniProt P28223: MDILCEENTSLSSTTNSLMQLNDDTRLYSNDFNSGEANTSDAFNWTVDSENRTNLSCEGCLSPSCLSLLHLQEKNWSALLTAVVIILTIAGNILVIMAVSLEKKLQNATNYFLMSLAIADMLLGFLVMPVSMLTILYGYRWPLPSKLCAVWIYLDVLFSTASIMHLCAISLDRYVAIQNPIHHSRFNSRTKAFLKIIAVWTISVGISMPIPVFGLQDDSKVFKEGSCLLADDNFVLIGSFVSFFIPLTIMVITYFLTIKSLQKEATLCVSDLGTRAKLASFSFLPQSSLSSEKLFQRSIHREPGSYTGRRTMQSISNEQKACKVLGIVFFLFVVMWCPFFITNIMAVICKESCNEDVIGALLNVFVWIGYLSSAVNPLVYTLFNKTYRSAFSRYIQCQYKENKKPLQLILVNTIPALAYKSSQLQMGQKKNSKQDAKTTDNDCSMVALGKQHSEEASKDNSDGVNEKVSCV
# UniProt Q14160: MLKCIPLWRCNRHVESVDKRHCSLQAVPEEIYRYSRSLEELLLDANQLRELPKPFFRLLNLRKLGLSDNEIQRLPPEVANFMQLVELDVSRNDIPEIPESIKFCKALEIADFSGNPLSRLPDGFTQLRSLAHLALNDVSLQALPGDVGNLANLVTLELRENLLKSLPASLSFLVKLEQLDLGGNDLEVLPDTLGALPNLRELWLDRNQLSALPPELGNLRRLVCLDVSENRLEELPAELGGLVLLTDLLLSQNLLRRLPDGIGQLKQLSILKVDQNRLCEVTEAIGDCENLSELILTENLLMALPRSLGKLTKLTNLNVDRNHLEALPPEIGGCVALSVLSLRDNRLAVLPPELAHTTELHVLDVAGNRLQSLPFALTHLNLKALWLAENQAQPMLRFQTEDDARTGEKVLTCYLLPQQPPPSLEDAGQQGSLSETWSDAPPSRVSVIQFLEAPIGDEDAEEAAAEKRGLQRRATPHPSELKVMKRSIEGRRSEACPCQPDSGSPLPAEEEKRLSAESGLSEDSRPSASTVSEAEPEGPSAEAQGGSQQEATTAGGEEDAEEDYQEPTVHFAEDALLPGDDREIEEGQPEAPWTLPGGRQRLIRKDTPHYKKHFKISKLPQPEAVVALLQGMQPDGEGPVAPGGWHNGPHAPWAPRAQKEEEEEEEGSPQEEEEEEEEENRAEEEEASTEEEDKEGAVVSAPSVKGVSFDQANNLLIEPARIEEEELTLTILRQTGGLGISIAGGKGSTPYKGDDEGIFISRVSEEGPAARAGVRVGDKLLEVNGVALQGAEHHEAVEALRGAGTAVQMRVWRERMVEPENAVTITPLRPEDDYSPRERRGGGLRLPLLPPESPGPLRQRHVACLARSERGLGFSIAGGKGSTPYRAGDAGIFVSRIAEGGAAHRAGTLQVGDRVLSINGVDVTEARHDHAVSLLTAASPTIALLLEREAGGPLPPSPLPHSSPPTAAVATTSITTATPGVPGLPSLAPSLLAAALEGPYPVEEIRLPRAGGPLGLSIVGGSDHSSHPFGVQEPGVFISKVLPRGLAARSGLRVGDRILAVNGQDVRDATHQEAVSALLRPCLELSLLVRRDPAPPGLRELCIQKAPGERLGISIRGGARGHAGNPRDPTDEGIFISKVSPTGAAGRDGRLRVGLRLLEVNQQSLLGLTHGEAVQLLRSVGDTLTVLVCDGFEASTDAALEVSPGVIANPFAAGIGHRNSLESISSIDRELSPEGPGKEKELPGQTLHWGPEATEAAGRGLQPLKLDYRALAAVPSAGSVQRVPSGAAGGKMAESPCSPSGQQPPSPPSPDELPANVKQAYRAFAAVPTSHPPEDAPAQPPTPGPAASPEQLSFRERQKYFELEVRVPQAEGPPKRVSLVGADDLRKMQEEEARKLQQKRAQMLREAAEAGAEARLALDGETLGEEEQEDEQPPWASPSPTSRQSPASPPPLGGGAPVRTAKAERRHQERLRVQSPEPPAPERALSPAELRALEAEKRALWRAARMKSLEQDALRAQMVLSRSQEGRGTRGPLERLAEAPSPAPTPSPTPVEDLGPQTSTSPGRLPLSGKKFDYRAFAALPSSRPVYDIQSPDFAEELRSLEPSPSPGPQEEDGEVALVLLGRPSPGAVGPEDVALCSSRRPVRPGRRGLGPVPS
# Results are given in words; binding and its absence hold for the method and conditions named. Binding seen in cells or lysates may run through a third protein. These calls come from enrichment with a bait or labelling near it, and not all partners need be listed. For part of these data: A no says only that the protein was not detected with the bait. For part of these data: Sequences can lack the tags named with a protein.
# T1: MAS1 (proto-oncogene MAS type I), TAP-tagged (human) (UniProt P04201)
# T1 sequence: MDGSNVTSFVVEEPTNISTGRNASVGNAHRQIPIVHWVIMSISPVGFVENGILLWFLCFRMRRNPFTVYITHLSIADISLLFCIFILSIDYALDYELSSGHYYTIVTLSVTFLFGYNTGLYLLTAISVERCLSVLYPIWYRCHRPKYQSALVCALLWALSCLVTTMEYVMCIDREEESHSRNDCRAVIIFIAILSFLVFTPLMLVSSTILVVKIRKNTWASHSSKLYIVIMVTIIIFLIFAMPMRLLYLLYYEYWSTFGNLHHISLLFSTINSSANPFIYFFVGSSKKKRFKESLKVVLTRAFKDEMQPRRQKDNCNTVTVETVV
# B1: SNTB1 (protein, UniProt Q13884 1-538)
# chain: MAVAAAAAAAGPAGAGGGRAQRSGLLEVLVRDRWHKVLVNLSEDALVLSSEEGAAAYNGIGTATNGSFCRGAGAGHPGAGGAQPPDSPAGVRTAFTDLPEQVPESISNQKRGVKVLKQELGGLGISIKGGKENKMPILISKIFKGLAADQTQALYVGDAILSVNGADLRDATHDEAVQALKRAGKEVLLEVKYMREATPYVKKGSPVSEIGWETPPPESPRLGGSTSDPPSSQSFSFHRDRKSIPLKMCYVTRSMALADPENRQLEIHSPDAKHTVILRSKDSATAQAWFSAIHSNVNDLLTRVIAEVREQLGKTGIAGSREIRHLGWLAEKVPGESKKQWKPALVVLTEKDLLIYDSMPRRKEAWFSPVHTYPLLATRLVHSGPGKGSPQAGVDLSFATRTGTRQGIETHLFRAETSRDLSHWTRSIVQGCHNSAELIAEISTACTYKNQECRLTIHYENGFSITTEPQEGAFPKTIIQSPYEKLKMSSDDGIRMLYLDFGGKDGEIQLDLHSCPKPIVFIIHSFLSAKITRLGLVA
# Legend:
# Assay in all cases: affinity purification with mass spectrometry; TAP/MS; TAP-tagged bait transfected alone (or with empty vector) in HEK293T cells; TEV cleavage omitted; eluates on Velos-Pro Orbitrap Elite; protein FDR 2.5%
# [1] = target: ADRA2B (α2B-adrenergic receptor), TAP-tagged (human) (UniProt P18089)
# [2] = target: CYSLTR2 (cysteinyl leukotriene 2 receptor), TAP-tagged (human) (UniProt Q9NS75)
# [3] = target: SSTR5 (somatostatin receptor 5), TAP-tagged (human) (UniProt P35346)
# [4] = target: T1, MAS1 (proto-oncogene MAS type I), TAP-tagged (human)
# [5] = target: CXCR3 (chemokine receptor), TAP-tagged (human) (UniProt P49682)
# [6] = target: SSTR2 (somatostatin receptor 2), TAP-tagged (human) (UniProt P30874)
# [7] = target: P2RY1 (P2Y purinergic receptor 1), TAP-tagged (human) (UniProt P47900)
# [8] = target: SSTR4 (somatostatin receptor 4), TAP-tagged (human) (UniProt P31391)
# [9] = target: HRH3 (histamine type 3 receptor), TAP-tagged (human) (UniProt Q9Y5N1)
# TAP–ADRA1D (human) = TAP–ADRA1D (human) (UniProt P25100)
# [10] = target: HTR2B (5-hydroxytryptamine type 2B receptor), TAP-tagged (human) (UniProt P41595)
# [11] = target: S1PR2 (sphingosine-1-phosphate type 2 receptor), TAP-tagged (human) (UniProt O95136)
# [12] = target: HTR2C (5-hydroxytryptamine type 2C receptor), TAP-tagged (human) (UniProt P28335)
# [13] = target: CXCR1 (chemokine receptor), TAP-tagged (human) (UniProt P25024)
# [14] = target: MCHR2 (melanin-concentrating hormone type 2 receptor), TAP-tagged (human) (UniProt Q969V1)
# [15] = target: CXCR5 (chemokine receptor), TAP-tagged (human) (UniProt P32302)
# [16] = target: LPAR2 (lysophosphatidic acid type 2 receptor), TAP-tagged (human) (UniProt Q9HBW0)
# [17] = target: HTR2A (5-hydroxytryptamine type 2A receptor), TAP-tagged (human) (UniProt P28223)
Molecule,binding [1],binding [2],binding [3],binding [4],binding [5],binding [6],binding [7],binding [8],binding [9],binding (TAP–ADRA1D (human)),binding [10],binding [11],binding [12],binding [13],binding [14],binding [15],binding [16],binding [17]
dystrophin (DMD) (from UniProt P11532 1-3685),no binding,no binding,no binding,no binding,no binding,no binding,no binding,no binding,no binding,binds,no binding,no binding,no binding,no binding,no binding,no binding,no binding,no binding
"Scribble (SCRIB), endogenous (from UniProt Q14160 1-1655)",no binding,no binding,no binding,no binding,no binding,no binding,no binding,no binding,no binding,binds,no binding,no binding,no binding,no binding,no binding,no binding,no binding,no binding
SNTB2 (from UniProt Q13425 1-540),no binding,no binding,no binding,no binding,no binding,no binding,no binding,no binding,no binding,binds,no binding,no binding,no binding,no binding,no binding,no binding,no binding,no binding
utrophin (UTRN) (from UniProt P46939 1-3433),no binding,no binding,no binding,no binding,no binding,no binding,no binding,no binding,no binding,binds,no binding,no binding,no binding,no binding,no binding,no binding,no binding,no binding
B1,no binding,no binding,no binding,no binding,no binding,no binding,no binding,no binding,no binding,binds,no binding,no binding,no binding,no binding,no binding,no binding,no binding,no binding
